Assay results published in patent US10905764B2, “Hydrated food” (Taiyokagaku Co., Ltd., priority 2005, dated 2021).

Columns and labels:
panelists [1] = assay: Sensory evaluation: taste of glutamic acid with addition of pyroglutamic acid; type: in vivo
[2] = minimum concentration at which taste can be perceived; cited from earlier work
panelists [3] = assay: Sensory evaluation: bitter taste of isoleucine with addition of pyroglutamic acid and theanine (1:50); type: in vivo; conditions: for number of panelists who felt the bitter taste of isoleucine: ten panelists
panelists [4] = assay: Sensory evaluation: bitter taste of leucine with addition of pyroglutamic acid and theanine (1:50); type: in vivo; conditions: no mixture added
panelists [5] = assay: Sensory evaluation: bitter taste of valine with addition of pyroglutamic acid and theanine; conditions: for number of panelists who felt the bitter taste of valine: ten panelists

## N[C@@H](CCC(=O)O)C(=O)O [glutamic acid]
Panelists [1]; glutamic acid 100 mg/100 ml, pyroglutamic acid 100 mg/100 ml, ten panelists
  whether the taste of the glutamic acid solution was felt: not felt
Panelists [1]; no pyroglutamic acid
  threshold of glutamic acid: 5 mg/100 ml
[2]
  taste threshold: 5 mg/100 ml

## CC[C@H](C)[C@H](N)C(=O)O [isoleucine]
[2]
  taste threshold: 90 mg/100 ml
Panelists [3]; isoleucine 50, pyroglutamic acid/theanine 0 (mg/100 ml)
  number of panelists who felt the bitter taste of isoleucine: 0
Panelists [3]; isoleucine 50, pyroglutamic acid/theanine 1 (mg/100 ml)
  number of panelists who felt the bitter taste of isoleucine: 0
Panelists [3]; isoleucine 50, pyroglutamic acid/theanine 10 (mg/100 ml)
  number of panelists who felt the bitter taste of isoleucine: 0
Panelists [3]; isoleucine 50, pyroglutamic acid/theanine 50 (mg/100 ml)
  number of panelists who felt the bitter taste of isoleucine: 0
Panelists [3]; isoleucine 50, pyroglutamic acid/theanine 100 (mg/100 ml)
  number of panelists who felt the bitter taste of isoleucine: 0
Panelists [3]; isoleucine 90, pyroglutamic acid/theanine 1 (mg/100 ml)
  number of panelists who felt the bitter taste of isoleucine: 4
Panelists [3]; isoleucine 90, pyroglutamic acid/theanine 10 (mg/100 ml)
  number of panelists who felt the bitter taste of isoleucine: 1
Panelists [3]; isoleucine 90, pyroglutamic acid/theanine 100 (mg/100 ml)
  number of panelists who felt the bitter taste of isoleucine: 0
Panelists [3]; isoleucine 200, pyroglutamic acid/theanine 0 (mg/100 ml)
  number of panelists who felt the bitter taste of isoleucine: 9
Panelists [3]; isoleucine 200, pyroglutamic acid/theanine 1 (mg/100 ml)
  number of panelists who felt the bitter taste of isoleucine: 4
Panelists [3]; isoleucine 200, pyroglutamic acid/theanine 10 (mg/100 ml)
  number of panelists who felt the bitter taste of isoleucine: 1
Panelists [3]; isoleucine 200, pyroglutamic acid/theanine 50 (mg/100 ml)
  number of panelists who felt the bitter taste of isoleucine: 0
Panelists [3]; isoleucine 200, pyroglutamic acid/theanine 100 (mg/100 ml)
  number of panelists who felt the bitter taste of isoleucine: 0
Panelists [3]; isoleucine 500, pyroglutamic acid/theanine 0 (mg/100 ml)
  number of panelists who felt the bitter taste of isoleucine: 10
Panelists [3]; isoleucine 500, pyroglutamic acid/theanine 1 (mg/100 ml)
  number of panelists who felt the bitter taste of isoleucine: 6
Panelists [3]; isoleucine 500, pyroglutamic acid/theanine 10 (mg/100 ml)
  number of panelists who felt the bitter taste of isoleucine: 4
Panelists [3]; isoleucine 500, pyroglutamic acid/theanine 50 (mg/100 ml)
  number of panelists who felt the bitter taste of isoleucine: 3
Panelists [3]; no mixture added
  threshold (isoleucine solution): 90 mg/100 ml

## CC(C)C[C@H](N)C(=O)O [leucine]
Panelists [4]
  threshold of leucine: 380 mg/100 ml

## CC(C)[C@H](N)C(=O)O [valine]
Panelists [5]; no mixture added
  threshold of valine: 150 mg/100 ml
Panelists [5]; valine 100, pyroglutamic acid/theanine 0 (mg/100 ml)
  number of panelists who felt the bitter taste of valine: 0
Panelists [5]; valine 100, pyroglutamic acid/theanine 1 (mg/100 ml)
  number of panelists who felt the bitter taste of valine: 0
Panelists [5]; valine 100, pyroglutamic acid/theanine 10 (mg/100 ml)
  number of panelists who felt the bitter taste of valine: 0
Panelists [5]; valine 100, pyroglutamic acid/theanine 50 (mg/100 ml)
  number of panelists who felt the bitter taste of valine: 0
Panelists [5]; valine 100, pyroglutamic acid/theanine 100 (mg/100 ml)
  number of panelists who felt the bitter taste of valine: 0
Panelists [5]; valine 150, pyroglutamic acid/theanine 1 (mg/100 ml)
  number of panelists who felt the bitter taste of valine: 2
Panelists [5]; valine 150, pyroglutamic acid/theanine 50 (mg/100 ml)
  number of panelists who felt the bitter taste of valine: 0
Panelists [5]; valine 150, pyroglutamic acid/theanine 100 (mg/100 ml)
  number of panelists who felt the bitter taste of valine: 0
Panelists [5]; valine 500, pyroglutamic acid/theanine 0 (mg/100 ml)
  number of panelists who felt the bitter taste of valine: 10
Panelists [5]; valine 500, pyroglutamic acid/theanine 1 (mg/100 ml)
  number of panelists who felt the bitter taste of valine: 3
Panelists [5]; valine 500, pyroglutamic acid/theanine 10 (mg/100 ml)
  number of panelists who felt the bitter taste of valine: 1
Panelists [5]; valine 500, pyroglutamic acid/theanine 50 (mg/100 ml)
  number of panelists who felt the bitter taste of valine: 0
Panelists [5]; valine 500, pyroglutamic acid/theanine 100 (mg/100 ml)
  number of panelists who felt the bitter taste of valine: 0
Panelists [5]; valine 1000, pyroglutamic acid/theanine 0 (mg/100 ml)
  number of panelists who felt the bitter taste of valine: 10
Panelists [5]; valine 1000, pyroglutamic acid/theanine 1 (mg/100 ml)
  number of panelists who felt the bitter taste of valine: 5
Panelists [5]; valine 1000, pyroglutamic acid/theanine 10 (mg/100 ml)
  number of panelists who felt the bitter taste of valine: 3
Panelists [5]; valine 1000, pyroglutamic acid/theanine 50 (mg/100 ml)
  number of panelists who felt the bitter taste of valine: 1
[2]
  taste threshold: 150 mg/100 ml
